Measurements taken from the supplement of paper PMC10849652.
This is one part of the list.

Protein sequences, listed by entry. Tags and fused reporters are not part of them. Lines headed by an entry give the natural chain unless they say otherwise; changes in a name come on top.
UniProt O75190: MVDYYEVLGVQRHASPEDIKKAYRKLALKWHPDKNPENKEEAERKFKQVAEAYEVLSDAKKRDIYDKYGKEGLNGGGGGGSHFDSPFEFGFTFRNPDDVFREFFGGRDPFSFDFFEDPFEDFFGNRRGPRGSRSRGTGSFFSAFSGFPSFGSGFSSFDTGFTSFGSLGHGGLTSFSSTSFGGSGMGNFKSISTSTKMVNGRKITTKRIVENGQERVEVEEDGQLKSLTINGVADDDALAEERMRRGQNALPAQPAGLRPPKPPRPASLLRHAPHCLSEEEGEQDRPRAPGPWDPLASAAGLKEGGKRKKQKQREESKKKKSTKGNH
UniProt O75061: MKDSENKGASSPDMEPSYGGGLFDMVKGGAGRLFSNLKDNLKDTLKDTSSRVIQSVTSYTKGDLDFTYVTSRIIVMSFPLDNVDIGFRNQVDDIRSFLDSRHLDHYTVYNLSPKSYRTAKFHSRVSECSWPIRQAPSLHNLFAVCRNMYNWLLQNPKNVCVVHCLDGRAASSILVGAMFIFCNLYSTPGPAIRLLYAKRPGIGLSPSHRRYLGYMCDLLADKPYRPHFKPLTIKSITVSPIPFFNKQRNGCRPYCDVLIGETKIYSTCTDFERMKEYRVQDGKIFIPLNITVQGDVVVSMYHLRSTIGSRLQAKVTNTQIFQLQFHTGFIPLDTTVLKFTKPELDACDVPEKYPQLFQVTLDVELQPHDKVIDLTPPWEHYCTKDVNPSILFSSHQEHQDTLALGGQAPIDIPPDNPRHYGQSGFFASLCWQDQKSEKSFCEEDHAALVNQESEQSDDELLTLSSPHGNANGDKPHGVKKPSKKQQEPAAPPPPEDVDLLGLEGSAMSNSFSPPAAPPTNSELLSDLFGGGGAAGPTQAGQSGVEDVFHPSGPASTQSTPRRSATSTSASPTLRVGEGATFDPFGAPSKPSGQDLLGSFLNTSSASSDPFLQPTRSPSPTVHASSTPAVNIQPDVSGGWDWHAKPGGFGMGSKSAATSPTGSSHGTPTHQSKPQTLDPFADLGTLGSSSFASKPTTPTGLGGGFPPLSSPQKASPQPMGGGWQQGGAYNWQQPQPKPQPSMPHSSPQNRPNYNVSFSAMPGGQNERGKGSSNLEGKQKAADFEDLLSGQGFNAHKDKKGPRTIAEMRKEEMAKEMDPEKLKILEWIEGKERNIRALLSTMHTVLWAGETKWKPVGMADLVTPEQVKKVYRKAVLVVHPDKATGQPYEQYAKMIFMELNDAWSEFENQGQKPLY
UniProt Q9NVH1: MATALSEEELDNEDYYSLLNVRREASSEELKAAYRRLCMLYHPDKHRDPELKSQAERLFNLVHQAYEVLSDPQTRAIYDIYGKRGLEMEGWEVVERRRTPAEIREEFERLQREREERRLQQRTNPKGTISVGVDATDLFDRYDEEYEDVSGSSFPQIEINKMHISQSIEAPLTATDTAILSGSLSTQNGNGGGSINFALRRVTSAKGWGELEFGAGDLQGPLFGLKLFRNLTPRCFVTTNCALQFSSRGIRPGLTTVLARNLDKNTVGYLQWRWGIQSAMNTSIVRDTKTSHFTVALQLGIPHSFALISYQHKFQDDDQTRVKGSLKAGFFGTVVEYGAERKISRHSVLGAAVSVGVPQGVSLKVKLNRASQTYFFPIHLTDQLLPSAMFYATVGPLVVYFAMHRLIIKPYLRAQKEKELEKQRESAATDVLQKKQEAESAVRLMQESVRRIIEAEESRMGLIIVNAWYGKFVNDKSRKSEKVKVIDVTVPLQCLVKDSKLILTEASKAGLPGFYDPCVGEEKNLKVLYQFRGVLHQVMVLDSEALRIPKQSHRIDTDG
UniProt P55039: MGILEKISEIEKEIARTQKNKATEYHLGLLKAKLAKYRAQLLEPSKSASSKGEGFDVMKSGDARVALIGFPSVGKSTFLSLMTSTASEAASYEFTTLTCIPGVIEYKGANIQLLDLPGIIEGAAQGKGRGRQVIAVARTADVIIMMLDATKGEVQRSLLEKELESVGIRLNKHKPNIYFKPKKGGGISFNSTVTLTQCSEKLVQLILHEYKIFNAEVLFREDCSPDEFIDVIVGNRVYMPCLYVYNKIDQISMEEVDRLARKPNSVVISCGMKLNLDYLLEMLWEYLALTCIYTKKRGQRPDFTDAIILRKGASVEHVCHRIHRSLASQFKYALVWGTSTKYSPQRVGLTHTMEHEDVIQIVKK
UniProt Q9Y295: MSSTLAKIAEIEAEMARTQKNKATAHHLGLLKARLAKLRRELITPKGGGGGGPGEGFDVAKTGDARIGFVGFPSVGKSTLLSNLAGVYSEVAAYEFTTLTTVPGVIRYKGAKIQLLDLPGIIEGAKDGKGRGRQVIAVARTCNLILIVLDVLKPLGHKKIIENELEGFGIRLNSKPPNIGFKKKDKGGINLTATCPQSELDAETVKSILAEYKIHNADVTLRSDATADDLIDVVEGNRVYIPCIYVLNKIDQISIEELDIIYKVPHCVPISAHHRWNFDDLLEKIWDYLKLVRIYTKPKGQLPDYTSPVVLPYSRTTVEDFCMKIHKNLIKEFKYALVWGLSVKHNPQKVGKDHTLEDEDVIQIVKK
UniProt Q9BTV6: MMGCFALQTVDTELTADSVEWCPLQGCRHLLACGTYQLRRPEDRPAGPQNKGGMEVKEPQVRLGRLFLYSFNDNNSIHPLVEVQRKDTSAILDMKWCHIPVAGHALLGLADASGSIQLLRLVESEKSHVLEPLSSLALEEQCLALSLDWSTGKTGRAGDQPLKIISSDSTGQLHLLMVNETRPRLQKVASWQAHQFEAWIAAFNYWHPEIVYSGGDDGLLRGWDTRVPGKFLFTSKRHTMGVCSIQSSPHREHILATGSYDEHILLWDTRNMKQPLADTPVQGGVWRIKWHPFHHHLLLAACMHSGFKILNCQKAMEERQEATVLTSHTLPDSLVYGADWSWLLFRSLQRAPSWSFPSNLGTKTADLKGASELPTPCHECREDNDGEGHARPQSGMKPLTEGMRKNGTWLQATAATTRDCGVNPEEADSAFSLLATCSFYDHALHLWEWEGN
UniProt Q99543: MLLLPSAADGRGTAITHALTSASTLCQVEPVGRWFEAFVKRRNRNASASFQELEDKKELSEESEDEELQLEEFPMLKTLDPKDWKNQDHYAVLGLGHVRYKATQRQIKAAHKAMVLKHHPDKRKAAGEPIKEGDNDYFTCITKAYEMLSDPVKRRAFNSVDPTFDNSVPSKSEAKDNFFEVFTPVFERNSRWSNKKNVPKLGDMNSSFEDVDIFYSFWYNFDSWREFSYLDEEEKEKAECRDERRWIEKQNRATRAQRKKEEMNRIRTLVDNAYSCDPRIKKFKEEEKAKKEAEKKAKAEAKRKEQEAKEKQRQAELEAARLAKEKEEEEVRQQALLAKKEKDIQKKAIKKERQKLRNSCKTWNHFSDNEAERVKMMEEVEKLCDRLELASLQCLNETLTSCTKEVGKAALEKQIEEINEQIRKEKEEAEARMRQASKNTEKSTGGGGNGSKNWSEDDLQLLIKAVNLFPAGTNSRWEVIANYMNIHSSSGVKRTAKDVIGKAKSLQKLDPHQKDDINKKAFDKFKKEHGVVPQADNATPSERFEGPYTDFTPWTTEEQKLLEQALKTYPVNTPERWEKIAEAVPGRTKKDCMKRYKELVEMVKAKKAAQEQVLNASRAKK
UniProt Q14919: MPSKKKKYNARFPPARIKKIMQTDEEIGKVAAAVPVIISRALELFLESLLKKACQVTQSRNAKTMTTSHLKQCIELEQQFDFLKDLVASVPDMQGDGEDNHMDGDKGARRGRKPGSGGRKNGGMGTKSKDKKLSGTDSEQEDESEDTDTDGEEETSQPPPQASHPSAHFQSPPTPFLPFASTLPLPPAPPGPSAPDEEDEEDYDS
UniProt Q8WXX5: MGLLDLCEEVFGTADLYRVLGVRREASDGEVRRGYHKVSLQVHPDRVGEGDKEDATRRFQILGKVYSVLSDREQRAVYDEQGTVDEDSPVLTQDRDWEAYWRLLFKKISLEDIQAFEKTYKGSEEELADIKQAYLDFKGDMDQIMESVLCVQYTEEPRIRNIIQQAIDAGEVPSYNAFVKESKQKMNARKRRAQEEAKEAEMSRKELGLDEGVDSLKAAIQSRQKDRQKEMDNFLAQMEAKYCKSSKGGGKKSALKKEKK
UniProt Q02487, whole entry, looked up: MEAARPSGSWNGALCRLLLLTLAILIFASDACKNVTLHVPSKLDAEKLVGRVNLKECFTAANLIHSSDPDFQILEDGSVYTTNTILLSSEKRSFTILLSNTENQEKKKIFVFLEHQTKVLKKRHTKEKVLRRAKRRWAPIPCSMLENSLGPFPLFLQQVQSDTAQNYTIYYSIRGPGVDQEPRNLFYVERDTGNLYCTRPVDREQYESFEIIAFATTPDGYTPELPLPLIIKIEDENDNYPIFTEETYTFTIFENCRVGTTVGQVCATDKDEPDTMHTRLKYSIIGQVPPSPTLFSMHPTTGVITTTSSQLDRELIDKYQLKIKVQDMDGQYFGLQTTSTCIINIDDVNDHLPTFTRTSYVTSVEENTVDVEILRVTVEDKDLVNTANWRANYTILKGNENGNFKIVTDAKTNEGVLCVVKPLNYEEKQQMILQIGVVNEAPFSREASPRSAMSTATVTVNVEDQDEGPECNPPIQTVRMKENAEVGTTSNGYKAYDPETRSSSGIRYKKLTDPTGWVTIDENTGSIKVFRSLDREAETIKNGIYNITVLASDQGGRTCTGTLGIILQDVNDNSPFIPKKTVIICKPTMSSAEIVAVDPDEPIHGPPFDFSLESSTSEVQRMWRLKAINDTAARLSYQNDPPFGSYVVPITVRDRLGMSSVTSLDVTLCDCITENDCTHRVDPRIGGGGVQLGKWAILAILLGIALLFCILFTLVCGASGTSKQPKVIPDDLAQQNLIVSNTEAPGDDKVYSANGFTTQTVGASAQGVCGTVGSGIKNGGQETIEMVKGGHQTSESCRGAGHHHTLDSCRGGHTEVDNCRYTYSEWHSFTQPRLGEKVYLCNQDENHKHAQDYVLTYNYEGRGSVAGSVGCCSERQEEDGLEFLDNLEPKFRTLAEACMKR
UniProt Q9Y6G9, whole entry, looked up: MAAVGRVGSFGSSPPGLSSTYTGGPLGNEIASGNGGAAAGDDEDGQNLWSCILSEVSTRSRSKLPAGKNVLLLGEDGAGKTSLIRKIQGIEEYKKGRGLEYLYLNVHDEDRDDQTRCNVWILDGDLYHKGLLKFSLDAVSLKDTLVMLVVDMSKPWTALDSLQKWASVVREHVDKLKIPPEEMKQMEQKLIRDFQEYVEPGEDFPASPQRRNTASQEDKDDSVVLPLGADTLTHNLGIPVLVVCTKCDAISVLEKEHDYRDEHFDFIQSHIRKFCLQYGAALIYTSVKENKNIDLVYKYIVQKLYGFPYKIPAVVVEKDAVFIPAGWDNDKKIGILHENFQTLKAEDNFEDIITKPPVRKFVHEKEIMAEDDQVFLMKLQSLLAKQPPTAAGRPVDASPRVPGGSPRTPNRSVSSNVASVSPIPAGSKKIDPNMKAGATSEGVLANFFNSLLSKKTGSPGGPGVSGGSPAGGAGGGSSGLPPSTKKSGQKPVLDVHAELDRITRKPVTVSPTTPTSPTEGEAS
UniProt Q8WWZ3: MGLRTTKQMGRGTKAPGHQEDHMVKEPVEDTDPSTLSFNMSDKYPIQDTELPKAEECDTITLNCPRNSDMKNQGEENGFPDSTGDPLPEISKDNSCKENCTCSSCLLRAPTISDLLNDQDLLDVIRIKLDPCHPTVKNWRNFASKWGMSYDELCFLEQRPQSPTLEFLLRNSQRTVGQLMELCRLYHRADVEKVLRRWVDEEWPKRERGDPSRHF
UniProt Q92611: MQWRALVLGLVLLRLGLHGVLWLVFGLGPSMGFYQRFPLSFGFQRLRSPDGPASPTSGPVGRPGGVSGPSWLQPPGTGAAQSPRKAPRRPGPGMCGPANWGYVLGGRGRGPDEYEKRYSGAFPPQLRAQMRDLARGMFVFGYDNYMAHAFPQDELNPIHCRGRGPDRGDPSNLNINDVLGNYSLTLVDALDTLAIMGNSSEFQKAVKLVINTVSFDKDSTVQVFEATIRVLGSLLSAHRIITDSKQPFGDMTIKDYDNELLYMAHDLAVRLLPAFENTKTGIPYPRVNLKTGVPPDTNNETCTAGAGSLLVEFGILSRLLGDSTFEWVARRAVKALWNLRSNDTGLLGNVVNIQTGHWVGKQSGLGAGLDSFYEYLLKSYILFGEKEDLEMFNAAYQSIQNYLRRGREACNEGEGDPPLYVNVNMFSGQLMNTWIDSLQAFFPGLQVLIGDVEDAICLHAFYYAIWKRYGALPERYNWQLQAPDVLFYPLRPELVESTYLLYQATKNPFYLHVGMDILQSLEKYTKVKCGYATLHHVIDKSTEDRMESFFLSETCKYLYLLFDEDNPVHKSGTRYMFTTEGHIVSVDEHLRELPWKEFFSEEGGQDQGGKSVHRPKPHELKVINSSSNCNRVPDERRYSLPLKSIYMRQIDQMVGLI

Key:
Test in all cases: log2 fold change, soluble protein after heating vs DMSO (PISA); higher = thermal stabilisation; K562 cells, 10 uM, 30 min; active = over 0.2 and 3.5 SD of the protein, either way, in both replicates (recomputed)
[1] = compound: CS(=O)(=O)c1ccc(-c2cnc(N)c(C(=O)Nc3ccccc3)n2)cc1
Procedure, shortened: (§1)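 Quantification of soluble protein used TMTpro 16plex LC-MS/MS, with channel sums equalised. Samples were the supernatant after 21,000xg for 90 min of pooled aliquots from K562 cells (2×10^6 cells/mL) treated with 10 μM compound for 30 min, heated for 3 min over 48°C-58°C, and extracted in PBS with 0.5% NP-40 at 4°C. Values, from duplicates, describe thermal stability against control samples on a log2 fold-change scale.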

[2] = compound: C[C@@H](Oc1cc(-c2cnn(C3CCNCC3)c2)cnc1N)c1c(Cl)ccc(F)c1Cl [crizotinib]
Procedure, shortened: as §1

[3] = compound: C[C@@H]1COCCN1C2=NC(=NC(=C2)C3(CC3)S(=O)(=O)C)C4=C5C=CNC5=CC=C4
Procedure, shortened: as §1

[4] = compound: C[C@H](C1=CC=C(C=C1)C(=O)NC2=C3C=CNC3=NC=C2)N
Procedure, shortened: as §1

[5] = compound: C[C@H](Nc1ncnc2nc[nH]c12)c1cc2cccc(Cl)c2c(=O)n1-c1ccccc1 [duvelisib]
Procedure, shortened: as §1

[6] = compound: Cc1cc(Nc2cc(CN3CCOCC3)c3nc(C)c(Cc4ccc(Cl)cc4F)n3n2)n[nH]1 [gandotinib]
Procedure, shortened: as §1

[7] = compound: Cc1cc(Nc2cc(N3CCN(C)CC3)nc(Sc3ccc(NC(=O)C4CC4)cc3)n2)n[nH]1 [tozasertib]
Procedure, shortened: as §1

[8] = compound: Cc1cc(SCc2sc(-c3ccc(C(F)(F)F)cc3)nc2C)ccc1OCC(=O)O
Procedure, shortened: as §1

[9] = compound: Cc1ccc(-n2nc(C(C)(C)C)cc2NC(=O)Nc2ccc(OCCN3CCOCC3)c3ccccc23)cc1 [doramapimod]
Procedure, shortened: as §1

[10] = compound: Cc1ccc(C(=O)N(CCCN)[C@@H](c2nc3cc(Cl)ccc3c(=O)n2Cc2ccccc2)C(C)C)cc1 [ispinesib]
Procedure, shortened: as §1

[11] = compound: Cc1ccc(NC(=O)c2ccc(CN3CC[C@H](N(C)C)C3)c(C(F)(F)F)c2)cc1Nc1nccc(-c2cncnc2)n1 [bafetinib]
Procedure, shortened: as §1

[12] = compound: Cc1cccc(CC(=O)N2CCc3c2ccc(-c2cn(C)c4ncnc(N)c24)c3F)n1
Procedure, shortened: as §1

[13] = compound: Cc1cn(-c2cc(NC(=O)c3ccc(C)c(Nc4nccc(-c5cccnc5)n4)c3)cc(C(F)(F)F)c2)cn1 [nilotinib]
Procedure, shortened: as §1

[14] = compound: Cc1nc(Nc2n[nH]c3c2CN(C(=O)N[C@H](CN(C)C)c2ccccc2)C3(C)C)c2sccc2n1
Procedure, shortened: as §1

[15] = compound: Cc1nc(Nc2ncc(C(=O)Nc3c(C)cccc3Cl)s2)cc(N2CCN(CCO)CC2)n1 [dasatinib]
Procedure, shortened: as §1

[16] = compound: Cc1ncc(-c2ccnc(Nc3ccc(S(C)(=O)=O)cc3)n2)n1C(C)C
Procedure, shortened: as §1

[17] = compound: Cn1cc(-c2ccc3c(c2)CCN3C(=O)Cc2cccc(C(F)(F)F)c2)c2c(N)ncnc21
Procedure, shortened: as §1

[18] = compound: Cn1cc(-c2ccc3nnc(C(F)(F)c4ccc5ncccc5c4)n3n2)cn1
Procedure, shortened: as §1

[19] = compound: Cn1cncc1[C@@](N)(c1ccc(Cl)cc1)c1ccc2c(c1)c(-c1cccc(Cl)c1)cc(=O)n2C [tipifarnib]
Procedure, shortened: as §1

[20] = compound: FC(F)(F)c1ccc(/C=C/c2nc(COc3ccc(CCCCn4ccnn4)cc3)co2)cc1 [mubritinib]
Procedure, shortened: as §1

Measured: log2 fold change

ECM1 isoform 4 (UniProt Q16610)
inactive: [1] -0.053 | [2] 0.028 | [3] 0.005 | [4] -0.014 | [5] -0.04 | [6] 0.036 | [7] 0.045 | [8] -0.005 | [9] 0.02 | [10] -0.018 | [11] -0.01 | [12] -0.023 | [13] 0.045 | [14] 0.012 | [15] 0.021 | [16] 0.002 | [17] 0.049 | [18] 0.026 | [19] 0.055 | [20] -0.046

DNAJB6 (UniProt O75190)
inactive: [1] 0 | [2] 0.017 | [3] -0.066 | [4] 0.031 | [5] -0.045 | [6] -0.074 | [7] -0.118 | [8] 0.033 | [9] -0.034 | [10] -0.037 | [11] -0.03 | [12] 0.032 | [13] 0.054 | [14] 0.002 | [15] 0.044 | [16] -0.026 | [17] -0.057 | [18] 0.04 | [19] -0.059 | [20] -0.008

DNAJC6 isoform 2 (UniProt O75061)
inactive: [1] 0.034 | [2] 0.009 | [3] 0.158 | [4] -0.062 | [5] 0.082 | [6] -0.058 | [7] 0.032 | [8] 0.024 | [9] -0.072 | [10] 0.068 | [11] -0.087 | [12] 0.017 | [13] -0.047 | [14] -0.002 | [15] -0.036 | [16] -0.054 | [17] 0.01 | [18] -0.045 | [19] -0.013 | [20] 0.036

DNAJC11 (UniProt Q9NVH1)
inactive: [1] 0.022 | [2] 0.014 | [3] 0.048 | [4] -0.027 | [5] 0.019 | [6] -0.148 | [7] 0.017 | [8] 0.005 | [9] -0.018 | [10] -0.001 | [11] -0.013 | [12] 0.034 | [13] 0.017 | [14] -0.005 | [15] -0.067 | [16] -0.012 | [17] 0.01 | [18] 0.013 | [19] 0.013 | [20] 0.024

DRG2 (UniProt P55039)
inactive: [1] 0.014 | [2] 0.046 | [3] 0.037 | [4] -0.03 | [5] 0.064 | [6] -0.027 | [7] 0.026 | [8] 0.017 | [9] -0.03 | [10] 0.076 | [11] -0.044 | [12] -0.008 | [13] 0 | [14] -0.005 | [15] -0.027 | [16] 0.017 | [17] 0.056 | [18] 0.02 | [19] -0.024 | [20] 0.028

DRG1 (UniProt Q9Y295)
inactive: [1] -0.01 | [2] -0.006 | [3] -0.074 | [4] 0.062 | [5] 0.003 | [6] 0.048 | [7] -0.018 | [8] -0.008 | [9] 0.026 | [10] 0.02 | [11] 0.08 | [12] -0.009 | [13] 0.035 | [14] 0.073 | [15] 0.061 | [16] 0.02 | [17] -0.053 | [18] -0.023 | [19] 0.025 | [20] -0.008

DPH7 (UniProt Q9BTV6)
inactive: [1] 0.002 | [2] -0.016 | [3] 0.052 | [4] -0.069 | [5] 0.077 | [6] -0.023 | [7] -0.025 | [8] -0.04 | [9] 0.03 | [10] 0.014 | [11] -0.065 | [12] -0.004 | [13] 0.018 | [14] 0.001 | [15] 0.037 | [16] 0.022 | [17] 0.014 | [18] -0.146 | [19] 0.076 | [20] -0.089

DNAJC2 (UniProt Q99543)
inactive: [1] -0.007 | [2] -0.123 | [3] -0.072 | [4] 0.159 | [5] -0.013 | [6] -0.007 | [7] 0.039 | [8] 0.092 | [9] 0.187 | [10] -0.168 | [11] 0.108 | [12] 0.062 | [13] -0.268 | [14] -0.032 | [15] -0.109 | [16] 0.024 | [17] 0.004 | [18] -0.026 | [19] -0.082 | [20] -0.064

DNASE2 (UniProt O00115)
inactive: [1] 0.03 | [2] -0.059 | [3] 0.022 | [4] -0.006 | [5] 0.085 | [6] 0.04 | [7] 0.005 | [8] 0.013 | [9] 0.045 | [10] -0.029 | [11] -0.126 | [12] -0.022 | [13] 0.052 | [14] -0.008 | [15] -0.053 | [16] -0.047 | [17] 0.052 | [18] 0.061 | [19] 0.032 | [20] 0.041

DRAP1 isoform 2 (UniProt Q14919)
inactive: [1] 0.021 | [2] 0.048 | [3] 0.04 | [4] -0.013 | [5] 0.008 | [6] 0.052 | [7] 0.005 | [8] -0.006 | [9] -0.026 | [10] 0.035 | [11] -0.078 | [12] -0.021 | [13] -0.045 | [14] -0.014 | [15] -0.004 | [16] -0.005 | [17] -0.003 | [18] 0.03 | [19] 0.033 | [20] 0.017

DST (UniProt Q03001)
inactive: [1] 0.12 | [2] -0.029 | [3] 0.075 | [4] 0.116 | [5] 0.122 | [6] 0.048 | [7] -0.252 | [8] -0.072 | [9] 0.041 | [10] -0.103 | [11] -0.3 | [12] 0.014 | [13] -0.241 | [14] -0.072 | [15] 0.048 | [16] -0.067 | [17] 0.028 | [18] 0.005 | [19] -0.045 | [20] 0.058

DNAJC9 (UniProt Q8WXX5)
inactive: [1] 0.026 | [2] 0.002 | [3] 0.038 | [4] -0.045 | [5] 0.027 | [6] -0.055 | [7] 0.018 | [8] -0.007 | [9] -0.062 | [10] -0.013 | [11] -0.087 | [12] -0.035 | [13] -0.007 | [14] -0.047 | [15] 0.037 | [16] -0.011 | [17] 0.032 | [18] 0.002 | [19] 0.001 | [20] 0.032

DSC2 (UniProt Q02487)
inactive: [1] 0.175 | [2] 0.032 | [3] 0.024 | [4] 0.088 | [5] 0.078 | [6] 0.188 | [7] -0.108 | [8] -0.201 | [9] 0.049 | [10] 0.062 | [11] -0.122 | [12] -0.143 | [13] 0.01 | [14] -0.073 | [15] -0.006 | [16] 0.182 | [17] -0.092 | [18] -0.101 | [19] 0.153 | [20] 0.071

DYNC1LI1 (UniProt Q9Y6G9)
inactive: [1] 0.054 | [2] -0.087 | [3] -0.006 | [4] 0.001 | [5] -0.029 | [6] -0.014 | [7] -0.018 | [8] 0.04 | [9] -0.006 | [10] -0.027 | [11] 0.033 | [12] 0.058 | [13] 0.016 | [14] 0.011 | [15] -0.056 | [16] 0.007 | [17] 0.009 | [18] -0.016 | [19] -0.034 | [20] 0.07

EDARADD (UniProt Q8WWZ3)
inactive: [1] 0.04 | [2] 0.037 | [3] 0.059 | [4] -0.006 | [5] 0.066 | [6] 0.005 | [7] 0.035 | [8] 0.051 | [9] -0.046 | [10] 0.027 | [11] -0.089 | [12] -0.044 | [13] 0.051 | [14] -0.022 | [15] -0.032 | [16] -0.033 | [17] 0.035 | [18] 0.066 | [19] -0.011 | [20] 0.078

Two successive records already listed:
DST (UniProt Q03001)
inactive: [1] 0.12 | [2] -0.029 | [3] 0.075 | [4] 0.116 | [5] 0.122 | [6] 0.048 | [7] -0.252 | [8] -0.072 | [9] 0.041 | [10] -0.103 | [11] -0.3 | [12] 0.014 | [13] -0.241 | [14] -0.072 | [15] 0.048 | [16] -0.067 | [17] 0.028 | [18] 0.005 | [19] -0.045 | [20] 0.058

DNAJC9 (UniProt Q8WXX5)
inactive: [1] 0.026 | [2] 0.002 | [3] 0.038 | [4] -0.045 | [5] 0.027 | [6] -0.055 | [7] 0.018 | [8] -0.007 | [9] -0.062 | [10] -0.013 | [11] -0.087 | [12] -0.035 | [13] -0.007 | [14] -0.047 | [15] 0.037 | [16] -0.011 | [17] 0.032 | [18] 0.002 | [19] 0.001 | [20] 0.032

Additional entries follow.

EDEM1 (UniProt Q92611)
inactive: [1] 0.041 | [2] 0.008 | [3] -0.076 | [4] 0.053 | [5] 0.104 | [6] -0.002 | [7] 0.045 | [8] 0.037 | [9] 0.026 | [10] -0.104 | [11] -0.042 | [12] 0.076 | [13] -0.014 | [14] -0.054 | [15] -0.02 | [16] -0.005 | [17] -0.069 | [18] 0.023 | [19] 0.06 | [20] -0.012
